The campaign covered roughly 2,800 compounds. Fewer than 10 were called active. Another 7% or so got no clear call; they are omitted. The call rests on the fitted dose curve; in most records, active means well fitted inhibition curve with a large enough effect; inconclusive means small, poorly fitted or top-dose-only effect; inactive means no such curve, though single readings can be large or run the other way. This is one part of the list.
What follows are molecules tested against Metallo-beta-lactamase type 2 (Klebsiella pneumoniae) (UniProt C7C422) (assay: qHTS to identify inhibitors of the New Delhi Metallo-beta-lactamase (NDM): Nitrocefin screen against the machine-based learning selections.). Conditions: NDM-1 enzyme, nitrocefin hydrolysis, absorbance 485 nm; activity, negative = inhibition: at the top concentration.
How it was run: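 NDM-1 (2 nM final) in 50 mM HEPES pH 7.0, 1 uM Zn2SO4, 0.01% Tween20 was preincubated with compounds for >30 min. Nitrocefin (16.7 uM final) was read at 485 nm after 15 min, and meropenem (50 uM final) at 300 nm after 30 min.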
Further: % of control where 0% means no effect.

The chains behind the UniProt entries cited, without tags or fusion partners. Where a name states a change or a piece, a line headed by the entry shows the natural chain unless it says otherwise.
UniProt C7C422: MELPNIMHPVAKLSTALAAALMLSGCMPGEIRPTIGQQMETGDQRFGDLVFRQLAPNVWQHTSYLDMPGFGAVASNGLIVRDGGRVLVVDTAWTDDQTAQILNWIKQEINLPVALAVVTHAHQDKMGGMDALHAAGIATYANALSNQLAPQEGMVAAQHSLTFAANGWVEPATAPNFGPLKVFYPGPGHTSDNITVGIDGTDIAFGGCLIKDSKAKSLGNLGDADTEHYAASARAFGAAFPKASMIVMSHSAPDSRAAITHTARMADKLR

activity, negative = inhibition, inactive:
O=C(Nc1cccc2ccccc12)O[C@@H]1CO[C@H]2[C@@H]1OC[C@@H]2n1nnnc1-c1ccc(-c2ccccc2)cc1 -1.39%, CC1=C[C@@H](CNC(=O)CCCC(=O)O)[C@H](C(C)C)C[C@H]1Cc1nc2ccc(F)cc2[nH]1 0.278% [at 57.5 µM], O=C(NC1CCN(c2cc(-c3ccc(Cl)cc3)[nH]n2)C1)c1ccncc1 (configuration not stated) -1.2%, CN(C)Cc1cn([C@H]2CO[C@H]3[C@@H]2OC[C@H]3OC(=O)Nc2ccc(C(C)(C)C)cc2)nn1 -1.08% [at 57.5 µM], COC(=O)[C@@H]1Cc2ncn(Cc3ccc(Cl)cc3)c2CN1Cc1ccc(C(=O)O)cc1 -5.37%, CCNC(=O)N[C@H]1CO[C@H]2[C@@H]1OC[C@@H]2Nc1nccc(-c2ccc(OC)cc2)n1 2.24% [at 57.5 µM], CCc1noc(-c2ccn3c(CNC(=O)c4ccc(OC)c(F)c4)nnc3c2)n1 10.2%, O=C(c1ccco1)N1CCN(Cc2ccc3c(c2)CCO3)CC(O)C1 (configuration not stated) -3.94%, CCn1cnnc1CCNC(=O)c1cc(-c2ccc(C)cc2)nc2ccccc12 -6.46%, CC(C)(C)C(=O)N1CCC2(C1)C(=O)N(CCc1ccccc1)c1ccccc12 (configuration not stated) -1.6%, CNC(=O)C1(N2CCC[C@H]2C(=O)NC(C)C)COC1 -16.1% [at 76.7 µM], O=C(O)c1ccc([S+](=O)([O-])N2CC(COc3ccccc3)C3(CN(c4ccccc4)C3)C2)cc1 (configuration not stated) -4.68%, c1ccc(-c2cn3c(n2)CO[C@@H](CNCc2ccc4ccccc4n2)C3)cc1 6.93% [at 57.5 µM], Cc1ccc(NC(=O)N2CCCC(c3nccn3Cc3ccncc3)C2)cc1C (configuration not stated) 6.03%, COC[C@]1(O)CCN(C(=O)CSCc2ccccc2C)CC1(C)C -0.216%, CN1CCCC2(C1)CN(Cc1cccnc1)c1ccc(C(=O)Nc3ccc(F)cc3)cc12 (configuration not stated) 3.65% [at 57.5 µM], O=C(c1cccc2cnccc12)N1CCC2(CC1)Nc1ccccc1NC2=O 2.13%, CC(C)(C)CC(=O)N1CCC(C(NC(=O)c2ccccc2Cl)C(=O)N2CCCCC2)CC1 (configuration not stated) -13.5%, O=C(O)C[C@@H]1CCN(C(=O)C2CCCCC2)C[C@@H]1CCN1CCN(c2ccccn2)CC1 -8.03%, O=c1c2nc(-c3cccc(O)c3)ccc2ncn1Cc1ccccn1 -12.6% [at 57.5 µM], CC1(C(=O)NCc2cccnc2)CCCc2cnc(Nc3ccccc3)nc21 (configuration not stated) 2.44% [at 57.5 µM], Cc1ccc2c(n1)N(C)[C@H](CO)CCN(Cc1ccc(Cl)cc1)C2 5% [at 57.5 µM], O=c1c2nc(NCc3ccccc3)ccc2ncn1Cc1ccccc1 -4.47% [at 57.5 µM], CCc1ccc(CNC(=O)c2ccc3c(c2)N(C)C2CCCCN2C3=O)cc1 (configuration not stated) -2.68%, CCCC1(CO)CCCN(Cc2ccc(OCC(=O)N3CCCC3)cc2)C1 (configuration not stated) 2.88%, COC(=O)N1CCCC(c2nn(-c3ccc(OC)cc3)c(=O)[nH]2)C1 (configuration not stated) 0.846% [at 57.5 µM], COc1ccc(Cl)cc1-c1ccc2c(c1)C(=O)N1CCN(C(=O)CO)C[C@@H]1C(=O)N2 -4.97% [at 57.5 µM], Cc1ccc(S(=O)(=O)N(C)CC2CCOC2)cc1F (configuration not stated) -2.16%, Cc1ccc2nc(C3CCN(Cc4ccc(-c5cccs5)cc4)CC3)[nH]c(=O)c2c1 -0.194%, CC(=O)NC[C@@H]1C=C(C)[C@H](CC(=O)N(C)Cc2ccccc2)C[C@H]1C(C)C -10.3% [at 57.5 µM], c1c(CC2CCCCC2)nnn1[C@H]1CO[C@H]2[C@@H]1OC[C@@H]2NCC1CCCCC1 2.36% [at 57.5 µM], CN1[C@@H](CCC(=O)N2CC[C@@H](O)C2)CNC(=O)[C@@H]2[C@H]1CCN2C1CCOCC1 -2.72% [at 57.5 µM], Cc1ccc2nc(C3CCCN(Cc4ccccc4)C3)[nH]c(=O)c2c1 (configuration not stated) 0.6% [at 57.5 µM], CC(=O)Nc1ccc(CN2CC3(C2)C(=O)N(Cc2ccc(C)o2)C(=O)[C@@H]2C[C@@H](O)CN23)cc1 -2.61%, CCNC(=O)O[C@@H]1CO[C@H]2[C@@H]1OC[C@@H]2NC(=S)Nc1ccc(N(C)C)cc1 0.306% [at 57.5 µM], CN(Cc1ccccc1)Cc1cn([C@H]2CO[C@H]3[C@@H]2OC[C@@H]3NC(=O)CCC(=O)O)nn1 -6.98% [at 57.5 µM], Cc1noc([C@@H](C)NS(=O)(=O)c2ccccc2)c1C(=O)O 23.1% [at 57.5 µM], COc1ccc(C(=O)N2CCCC(O)(CN3CCCC3)C2)cc1Cl (configuration not stated) -1.26%, COc1ccc(C(=O)N2CCC(N3CCCCCC3=O)CC2)cc1 8.26% [at 57.5 µM], Cc1cc(Cn2cc3c4c(cccc42)[C@H](CC(C)C)N[C@H](C(=O)NCCN2CCCC2)C3)no1 1.83%, O=c1n(-c2ccc([N+](=O)[O-])cc2)nc2n1CCN(Cc1cccc3ccccc13)C2 0.445%, O=C(CN1CC2CC(C1)[C@H]1CCCC(=O)N1C2)NCc1cc(F)ccc1F (some centres not stated) 3.54%, COC(=O)c1ccc2nc(CO[C@H]3CN(Cc4cnn(C)c4)C[C@H]3F)[nH]c2c1 2.86% [at 57.5 µM], O=C(N[C@H]1CCN2C(=O)c3ccccc3NC(=O)[C@@H]2C1)c1ccccc1 0.709% [at 57.5 µM], Cc1noc2c(N3CC(O)C3)cc(-c3ccsc3)nc12 5.82% [at 76.7 µM], CSCC(=O)N1CC[C@H](NC(=O)Nc2ccc(F)cc2F)[C@H]1C(=O)N[C@@H](Cc1cccs1)C(N)=O -2.75%, OC1(c2nc(Nc3ccc(Oc4ccccc4)cc3)n[nH]2)CCOCC1 -7.8% [at 57.5 µM], Nc1cncc(-c2nccc(N3CCC(O)CC3)n2)c1 11%, Cc1cc(-c2cc3c(cn2)CN(Cc2ccc4[nH]ccc4c2)CCN3)ccn1 12.5% [at 57.5 µM], CN(C(=O)c1cc2ccccc2n1C)C1CCCN(C2Cc3ccccc3C2)C1 (configuration not stated) 2.32%, Cc1noc(C2CC3(CCN(C(=O)C4CCC4)CC3)CN2C)n1 (configuration not stated) 0.282%, COc1nccnc1NC1CCN(C(=O)c2cccs2)CC1 -1.2%, COc1cccc(NC(=O)N[C@H]2[C@H](O)[C@@H](N3CCN(C)CC3)[C@@H]3OC[C@H]2O3)c1 -3.13% [at 57.5 µM], COC(=O)[C@H](Cc1ccc(OC)cc1)NC(=O)[C@H]1CN(S(=O)(=O)c2ccccc2)CCN1C(=O)c1cccs1 1.39%, O=C(CN1C(=O)NC(c2ccccc2Cl)C2=C1COC2=O)Nc1ccc(F)c(Cl)c1 (configuration not stated) 9.81%, CC(=O)N1CCN(CC[C@H]2CN(C(=O)c3ccnc(Cl)c3)CC[C@H]2CC(=O)O)CC1 -1.75%, CS(=O)(=O)N1CCCCC1CCNc1nccc(-c2cccnc2)n1 (configuration not stated) 7.62%, O=C(N[C@H]1CC[C@H](Nc2nccc(-c3cccnc3)n2)C1)c1ccc(O)cc1 2.61%, COc1ccc(-c2cnc3[nH]cc(CC(=O)NCc4cnccn4)c3c2)cc1 23.3% [at 57.5 µM], COc1ccc2c(c1)CCN=C2C[C@H]1CN(C(=O)c2cccc(F)c2)CC[C@H]1CC(=O)O -3.19%, CCN(CC)Cc1cnc2c(C(=O)N3CCC(N(C)C)C3)cnn2c1 (configuration not stated) -3.8%, Cn1c(CN2CCOCC2)nnc1C1CCN(c2ncccc2C#N)CC1 1.8%, Cc1ccc(NC(=O)O[C@@H]2CO[C@H]3[C@@H]2OC[C@@H]3Nc2nccc(-c3ccccc3)n2)cc1 5.94% [at 57.5 µM], CC(=O)N1CCC(NC2(Cc3cc(CN(C)Cc4ccccc4)on3)COC2)CC1 2.01% [at 57.5 µM], COc1cccc(CN2CCN(c3ncccc3Cl)CC2CCO)c1 (configuration not stated) -1.7%, COc1cccc(CNC(=O)c2cc(-c3ccncc3)cn2C)c1OC 9.61%, Cc1ccc(-c2cc(N3CCC(CNC(=O)c4cc(C5CC5)[nH]n4)CC3)n[nH]2)cc1 0.771%, CCNC(=O)N1CCC[C@@H](O)[C@H](NC(=O)c2ccc(OCCOC)cc2)C1 -3% [at 57.5 µM], CCc1ccc(N2CC(c3noc(-c4cc(Cl)ccc4F)n3)CC2=O)cc1 (configuration not stated) -1.56%, O=C(c1ccccc1)N1CCn2c(nn(-c3ccc([N+](=O)[O-])cc3)c2=O)C1 -2.13%, COC(=O)c1cn([C@H]2CO[C@H]3[C@@H]2OC[C@@H]3NC(=O)c2ccc(N(C)C)cc2)nn1 -9.19% [at 57.5 µM], CC1(C(=O)NCCc2ccccn2)COCc2cnc(Nc3ccccc3)nc21 (configuration not stated) 3.36% [at 57.5 µM], Cc1nc(C(C)C)sc1CNC(=O)C1CCC(=O)N(C2CCCC2)C1 (configuration not stated) 6.85%, CCc1cc(=O)n(CC(=O)Nc2ccc(C(F)(F)F)cc2)c(N2CCOCC2)n1 -0.257%, Cc1ccc(C(=O)NC[C@@H]2CC[C@H]3C[C@@H]2C3(C)C)cc1 6.23% [at 57.5 µM], COC(=O)c1cn([C@H]2CO[C@H]3[C@@H]2OC[C@H]3OC(=O)Nc2cccc(C#N)c2)nn1 -0.317% [at 57.5 µM], CN1Cc2ncnc(NCCc3ccc(F)cc3)c2CN(c2ccc(Cl)cc2)C1=O 0.2%, CC1(CNc2ccccc2)COc2ccc(C(=O)NCCc3cnc[nH]3)cc2N1 (configuration not stated) -5.79% [at 57.5 µM], CN(Cc1ccccc1)C(=O)C[C@@H]1CCNC[C@@H]1Cc1cc(-c2ccc(C(C)(C)C)cc2)on1 -1.28%, CC(=O)Nc1ccc(S(=O)(=O)NC[C@@H]2C=C(C)[C@H](CC(=O)NCCN(C)C)C[C@H]2C(C)C)cc1 -10.7%, N#Cc1ccc(C(=O)N2C[C@@H]3C[C@H](C2)c2ccc(-c4ccc(OC(F)(F)F)cc4)c(=O)n2C3)cc1 -0.0396%, COC[C@@H]1CN(C(=O)c2ccc(OC)nc2)C[C@H]1c1nc(C2CC2)no1 2.51%, NC(=O)Cc1c[nH]c2ncc(-c3ccc4c(c3)OCO4)cc12 28.7% [at 57.5 µM], O=C(NC(c1ccccc1)c1ccccc1)c1cnc2c(c1)N(Cc1ccccc1)CCC2 -9.04% [at 57.5 µM], COCCNc1nc2cc(C(=O)N3CC[C@H](CO)[C@@H](O)C3)ccc2n1C 6.3%, CCn1ncc(NC(=O)Cn2ncc3cc(-c4ccc(C(=O)N(C)C)cc4)ccc32)n1 24.8%, CC(C)CN[C@H]1CO[C@H]2[C@@H]1OC[C@@H]2Nc1nccc(C(C)(C)C)n1 -0.932% [at 57.5 µM], CCN(CC)C(=O)[C@@H]1C[C@H](N)CN1C(=O)c1cc2ccccc2n(C)c1=O 0.851%, CCOc1ccccc1-c1nc(C2CC(=O)N(c3ccc(C)cc3)C2)no1 (configuration not stated) -0.249%, CN(Cc1ccccc1)Cc1cc(C[C@@H]2CC[C@H](O)[C@@H](CNC(=O)Nc3ccccc3)O2)no1 2.05%, COc1ccc([C@@H](NC(=O)Cc2c(F)cccc2Cl)C2CC(O)C2)cn1 (some centres not stated) 0.586%, CCCCCC(=O)N[C@H]1C[C@@H](Cc2cc(COc3ccccc3)on2)C1(C)C 2.63% [at 57.5 µM]
